The values below come from article PMC6829252.

These are yes or no findings as the source states them, for the method shown. Binding can be weak; no strength is given.

This assay deals with XopAI-ΔN70 (Xanthomonas axonopodis pv. citri strain XW19). The assay is described as follows: other fluorescence titration; intrinsic Trp fluorescence; 5 μM XopAI-dN70 incubated with various concentrations of ligand at 4 °C for 30 min in 50 mM NaH2PO4 pH 8.0; excitation 280 nm, emission 300-400 nm; both purified.

For SSSPRPLSPLVELN [ArgP14aa synthetic peptide], the binding result is “binds”.
